Reference: paper PMC5699845
No constants are given. Whether binding was seen depends on the method and setting. In cells and extracts the contact can be indirect. Some results given as binding are weak or reduced against the parent protein; the word gives no strength. Sequences can lack the tags named with a protein.

By UniProt entry, the sequences of proteins in these tests, tags left out.
UniProt Q7Z434: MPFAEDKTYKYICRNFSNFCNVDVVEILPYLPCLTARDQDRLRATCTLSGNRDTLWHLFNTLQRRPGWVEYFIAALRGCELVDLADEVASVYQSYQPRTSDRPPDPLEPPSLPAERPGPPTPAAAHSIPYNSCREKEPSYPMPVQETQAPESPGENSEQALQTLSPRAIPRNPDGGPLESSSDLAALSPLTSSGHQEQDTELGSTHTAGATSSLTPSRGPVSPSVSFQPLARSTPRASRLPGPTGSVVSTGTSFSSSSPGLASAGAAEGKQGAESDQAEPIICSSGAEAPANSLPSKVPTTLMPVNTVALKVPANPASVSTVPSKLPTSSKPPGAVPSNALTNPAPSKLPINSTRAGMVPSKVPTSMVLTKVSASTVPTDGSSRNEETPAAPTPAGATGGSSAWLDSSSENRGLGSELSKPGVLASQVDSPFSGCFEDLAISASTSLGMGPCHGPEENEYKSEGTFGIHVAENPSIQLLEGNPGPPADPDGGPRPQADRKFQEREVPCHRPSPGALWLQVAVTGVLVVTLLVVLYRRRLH

Tests used:
[1] = biological target: T1, Flag-tagged TRAF6-dR (lacking amino acids 70–109) (human) (UniProt Q9Y4K3); experiment: co-IP; 293T cells transfected 24 h with Flag-tagged TRAFs or their truncations and HA-tagged TBK1, HA-tagged IKKε or HA-tagged MAVS; IP anti-Flag, Western blot
T1 sequence: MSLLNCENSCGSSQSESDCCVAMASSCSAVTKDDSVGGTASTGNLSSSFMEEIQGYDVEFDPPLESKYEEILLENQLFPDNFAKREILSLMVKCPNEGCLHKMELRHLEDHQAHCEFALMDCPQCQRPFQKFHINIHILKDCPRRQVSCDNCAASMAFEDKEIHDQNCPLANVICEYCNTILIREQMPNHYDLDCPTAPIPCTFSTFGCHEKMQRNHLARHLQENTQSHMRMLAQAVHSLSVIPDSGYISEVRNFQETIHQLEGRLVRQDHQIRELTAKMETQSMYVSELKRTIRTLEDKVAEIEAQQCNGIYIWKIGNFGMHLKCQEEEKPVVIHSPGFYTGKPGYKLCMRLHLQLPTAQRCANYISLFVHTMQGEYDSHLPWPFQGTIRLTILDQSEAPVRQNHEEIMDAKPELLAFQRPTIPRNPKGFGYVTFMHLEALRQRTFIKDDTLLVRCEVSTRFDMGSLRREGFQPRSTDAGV

[2] = biological target: T2, Flag-tagged TRAF6-dC (lacking amino acids 288–348) (human) (UniProt Q9Y4K3); experiment: as above
T2 sequence: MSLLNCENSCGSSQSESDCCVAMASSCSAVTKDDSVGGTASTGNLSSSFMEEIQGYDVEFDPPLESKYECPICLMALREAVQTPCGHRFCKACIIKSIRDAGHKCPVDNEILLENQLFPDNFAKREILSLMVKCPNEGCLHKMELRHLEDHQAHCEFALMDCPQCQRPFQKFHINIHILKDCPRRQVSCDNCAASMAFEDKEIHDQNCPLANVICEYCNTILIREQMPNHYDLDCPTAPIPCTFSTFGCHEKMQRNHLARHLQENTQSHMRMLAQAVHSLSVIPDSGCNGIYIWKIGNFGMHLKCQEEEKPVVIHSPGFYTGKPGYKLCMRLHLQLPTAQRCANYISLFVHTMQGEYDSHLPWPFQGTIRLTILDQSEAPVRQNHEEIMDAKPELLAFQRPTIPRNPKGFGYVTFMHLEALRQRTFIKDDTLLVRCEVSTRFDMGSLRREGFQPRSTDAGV

[3] = biological target: T3, Flag-tagged TRAF2-d1 (lacking amino acids 1–233) (human) (UniProt Q12933); experiment: as above
T3 sequence: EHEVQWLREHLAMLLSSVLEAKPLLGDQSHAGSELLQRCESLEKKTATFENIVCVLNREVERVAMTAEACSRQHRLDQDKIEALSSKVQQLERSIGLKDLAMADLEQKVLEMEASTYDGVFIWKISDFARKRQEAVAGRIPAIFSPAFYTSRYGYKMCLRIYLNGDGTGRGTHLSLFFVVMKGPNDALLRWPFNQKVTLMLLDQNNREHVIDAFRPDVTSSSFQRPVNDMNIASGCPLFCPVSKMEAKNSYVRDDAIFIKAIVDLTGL

[4] = biological target: T4, Flag-tagged TRAF3-d1 (lacking amino acids 1–249) (human) (UniProt Q13114); experiment: as above
T4 sequence: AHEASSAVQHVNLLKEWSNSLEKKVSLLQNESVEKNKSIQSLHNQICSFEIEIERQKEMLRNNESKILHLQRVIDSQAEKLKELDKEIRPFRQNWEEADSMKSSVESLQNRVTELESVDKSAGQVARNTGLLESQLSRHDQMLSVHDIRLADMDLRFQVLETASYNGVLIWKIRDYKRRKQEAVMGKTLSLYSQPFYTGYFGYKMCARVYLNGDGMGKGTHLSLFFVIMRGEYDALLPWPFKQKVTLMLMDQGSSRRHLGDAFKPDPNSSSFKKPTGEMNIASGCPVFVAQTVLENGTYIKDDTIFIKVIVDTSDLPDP

[5] = biological target: T5, Flag-tagged TRAF2-dR (lacking amino acids 34–73) (human) (UniProt Q12933); experiment: as above
T5 sequence: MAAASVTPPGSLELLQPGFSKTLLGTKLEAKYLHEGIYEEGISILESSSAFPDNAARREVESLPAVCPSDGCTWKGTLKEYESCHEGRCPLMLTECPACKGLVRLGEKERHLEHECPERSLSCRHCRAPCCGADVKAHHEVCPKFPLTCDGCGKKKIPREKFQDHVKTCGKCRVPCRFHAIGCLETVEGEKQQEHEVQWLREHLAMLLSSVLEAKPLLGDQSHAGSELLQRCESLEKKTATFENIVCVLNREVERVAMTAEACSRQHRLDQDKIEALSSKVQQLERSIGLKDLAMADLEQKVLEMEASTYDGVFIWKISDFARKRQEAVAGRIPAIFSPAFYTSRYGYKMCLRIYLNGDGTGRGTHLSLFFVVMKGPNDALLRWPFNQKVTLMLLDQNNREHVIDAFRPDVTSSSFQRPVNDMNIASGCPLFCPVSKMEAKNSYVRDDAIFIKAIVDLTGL

[6] = biological target: T6, Flag-tagged TRAF2-dC (lacking amino acids 299–348) (human) (UniProt Q12933); experiment: as above
T6 sequence: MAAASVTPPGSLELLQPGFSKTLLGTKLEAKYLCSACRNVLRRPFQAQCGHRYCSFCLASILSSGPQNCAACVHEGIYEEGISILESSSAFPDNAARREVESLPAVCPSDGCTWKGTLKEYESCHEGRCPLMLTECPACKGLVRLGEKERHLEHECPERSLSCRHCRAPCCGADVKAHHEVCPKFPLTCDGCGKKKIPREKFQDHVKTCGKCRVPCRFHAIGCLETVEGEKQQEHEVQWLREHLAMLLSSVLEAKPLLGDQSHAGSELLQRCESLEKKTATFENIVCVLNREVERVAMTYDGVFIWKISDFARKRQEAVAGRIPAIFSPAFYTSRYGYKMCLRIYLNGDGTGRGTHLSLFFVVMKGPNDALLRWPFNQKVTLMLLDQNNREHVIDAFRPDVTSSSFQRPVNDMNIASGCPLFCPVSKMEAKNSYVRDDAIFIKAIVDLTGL

[7] = biological target: T7, Flag-tagged TRAF6-d1 (lacking amino acids 1–259) (human) (UniProt Q9Y4K3); experiment: as above
T7 sequence: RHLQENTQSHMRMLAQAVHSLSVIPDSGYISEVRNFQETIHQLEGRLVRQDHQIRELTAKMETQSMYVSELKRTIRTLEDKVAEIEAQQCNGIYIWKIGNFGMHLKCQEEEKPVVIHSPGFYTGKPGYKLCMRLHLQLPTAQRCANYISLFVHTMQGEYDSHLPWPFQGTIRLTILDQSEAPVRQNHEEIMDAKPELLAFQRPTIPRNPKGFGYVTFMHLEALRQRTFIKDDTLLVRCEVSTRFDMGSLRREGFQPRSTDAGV

[8] = biological target: T8, Flag-tagged TRAF2 (human) (UniProt Q12933); experiment: as above
T8 sequence: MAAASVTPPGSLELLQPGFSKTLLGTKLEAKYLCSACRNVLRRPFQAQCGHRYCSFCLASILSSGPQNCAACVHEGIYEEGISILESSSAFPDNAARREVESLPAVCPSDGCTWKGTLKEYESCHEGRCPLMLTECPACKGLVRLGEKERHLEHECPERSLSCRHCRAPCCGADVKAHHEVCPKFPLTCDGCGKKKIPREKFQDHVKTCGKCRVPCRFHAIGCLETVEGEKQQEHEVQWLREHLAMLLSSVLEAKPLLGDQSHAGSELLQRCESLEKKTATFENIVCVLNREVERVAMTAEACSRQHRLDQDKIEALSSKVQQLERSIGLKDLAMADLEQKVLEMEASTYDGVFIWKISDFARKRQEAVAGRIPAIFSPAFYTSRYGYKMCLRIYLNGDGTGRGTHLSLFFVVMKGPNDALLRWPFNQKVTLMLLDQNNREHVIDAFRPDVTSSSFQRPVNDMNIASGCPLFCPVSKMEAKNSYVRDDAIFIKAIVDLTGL

[9] = biological target: T9, Flag-tagged TRAF3-dR (lacking amino acids 68–77) (human) (UniProt Q13114); experiment: as above
T9 sequence: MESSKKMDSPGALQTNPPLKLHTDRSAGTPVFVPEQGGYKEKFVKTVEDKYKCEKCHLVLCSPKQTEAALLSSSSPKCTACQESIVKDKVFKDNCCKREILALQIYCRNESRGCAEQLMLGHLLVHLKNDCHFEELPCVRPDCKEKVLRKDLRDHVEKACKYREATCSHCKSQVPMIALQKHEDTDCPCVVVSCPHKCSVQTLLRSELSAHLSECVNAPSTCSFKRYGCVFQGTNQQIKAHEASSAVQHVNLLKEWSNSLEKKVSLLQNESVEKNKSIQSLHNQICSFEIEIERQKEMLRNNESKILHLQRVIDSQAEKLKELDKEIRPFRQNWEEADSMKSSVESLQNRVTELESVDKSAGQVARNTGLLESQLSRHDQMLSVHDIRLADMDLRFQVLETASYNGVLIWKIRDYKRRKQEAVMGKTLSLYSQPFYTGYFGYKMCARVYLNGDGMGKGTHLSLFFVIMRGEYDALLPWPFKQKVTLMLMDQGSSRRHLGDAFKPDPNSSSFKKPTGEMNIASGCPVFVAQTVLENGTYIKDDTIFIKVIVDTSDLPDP

[10] = biological target: T10, Flag-tagged TRAF3-dC (lacking amino acids 267–338) (human) (UniProt Q13114); experiment: as above
T10 sequence: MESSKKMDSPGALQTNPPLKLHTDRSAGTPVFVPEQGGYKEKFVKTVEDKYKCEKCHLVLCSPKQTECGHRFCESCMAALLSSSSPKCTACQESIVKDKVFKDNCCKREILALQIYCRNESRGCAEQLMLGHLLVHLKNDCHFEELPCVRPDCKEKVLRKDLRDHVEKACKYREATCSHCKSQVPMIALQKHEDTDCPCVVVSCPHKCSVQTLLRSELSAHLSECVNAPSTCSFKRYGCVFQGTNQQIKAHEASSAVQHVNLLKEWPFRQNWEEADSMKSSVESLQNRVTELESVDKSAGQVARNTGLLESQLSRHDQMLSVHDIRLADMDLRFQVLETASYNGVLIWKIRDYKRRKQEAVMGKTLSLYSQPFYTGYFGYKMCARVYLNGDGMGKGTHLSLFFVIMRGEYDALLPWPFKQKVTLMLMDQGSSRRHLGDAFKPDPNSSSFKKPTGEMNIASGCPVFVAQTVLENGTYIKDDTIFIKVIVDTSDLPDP

[11] = biological target: T8, Flag-tagged TRAF2 (human); experiment: co-IP; TRAFs-deficient 293T cells reconstituted with TRAF2, 3, 5 or 6, SeV-infected for the indicated times; lysates immunoprecipitated with anti-Flag antibody, Western blot

Measured: binding

HA-tagged MAVS (transfected in 293T) (from UniProt Q7Z434 1-540)
not listed: [11]
binds: all other assays above

Mitochondrial antiviral-signaling protein (MAVS), endogenous (from UniProt Q7Z434 1-540)
binds: [11]
